From article doi:10.1101/2024.12.02.626298
These are yes or no findings as the source states them, for the method shown. Binding can be weak; no strength is given. For part of these data: Binding seen in cells or lysates may run through a third protein.

Tests used:
[1] = biological target: CrsL-FLAG (M. smegmatis) (UniProt A0R4M8); test: co-IP
[2] = biological target: CrsL-His (M. smegmatis) (UniProt A0R4M8); test: far-Western, overlay or dot blot

Q: Which binding [1] does the source give for CarD (from UniProt A0R561 1-162) here?
A: binds

Q: With “DnaK chaperon protein (MSMEG_0709) (from UniProt A0QQC8 1-622)” as the substance, how does the binding [1] read?
A: binds

Q: With CarD-NT (from UniProt A0R561 1-162) as the substance, how does the binding [2] read?
A: binds
